## Library screening results

By UniProt entry, the sequences of proteins in these tests, tags left out.
UniProt E9BF75, entry or part of it: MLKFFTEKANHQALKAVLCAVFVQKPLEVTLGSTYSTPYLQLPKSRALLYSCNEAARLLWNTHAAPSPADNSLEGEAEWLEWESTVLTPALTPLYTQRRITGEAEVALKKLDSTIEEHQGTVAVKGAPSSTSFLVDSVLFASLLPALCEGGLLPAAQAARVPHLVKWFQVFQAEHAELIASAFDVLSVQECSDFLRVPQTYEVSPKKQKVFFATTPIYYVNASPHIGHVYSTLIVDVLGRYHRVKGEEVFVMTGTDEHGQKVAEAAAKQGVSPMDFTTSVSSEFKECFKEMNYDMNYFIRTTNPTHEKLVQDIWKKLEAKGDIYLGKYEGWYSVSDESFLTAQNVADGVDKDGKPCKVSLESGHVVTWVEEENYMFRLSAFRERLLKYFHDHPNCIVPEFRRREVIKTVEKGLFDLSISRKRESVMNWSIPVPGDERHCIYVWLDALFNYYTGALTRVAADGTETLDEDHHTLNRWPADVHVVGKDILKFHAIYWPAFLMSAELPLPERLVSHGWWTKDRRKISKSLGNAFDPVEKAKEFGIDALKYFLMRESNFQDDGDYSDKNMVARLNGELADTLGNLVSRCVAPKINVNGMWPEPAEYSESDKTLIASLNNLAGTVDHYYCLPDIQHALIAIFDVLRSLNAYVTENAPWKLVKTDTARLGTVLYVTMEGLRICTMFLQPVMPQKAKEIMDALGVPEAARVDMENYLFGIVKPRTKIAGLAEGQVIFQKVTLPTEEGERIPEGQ

Source: ChEMBL document CHEMBL3988442, “University of Dundee, Small-Polar-MMV Screening Library” (2021).

Results are percentages, as filed. The controls that fix the scale are not given in the record; negative values are as filed. Compounds were drawn at random from those tested, without regard to their results. A dash means the value is not listed here; it may have been measured.

A: 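Methionyl-tRNA synthetase (putative), Leishmania donovani (UniProt E9BF75). Primary screen of methionyl-tRNA synthetase; the read-out is not stated. The test concentration is not given. Values are per cent inhibition. Of about 68,000 compounds tested this way, about 24 (0.035%) reached 50% or more in at least one test.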
B: 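Assay on Mycobacterium tuberculosis, filed only as a heat shock assay from Cornell; the read-out is not stated. The concentration is filed as 10 mM, unlikely as a test dose, so the dose is not known. Direction is inferred from retests: higher values go with stronger inhibition. Of about 69,000 compounds tested this way, about 930 (1.4%) reached 50% or more in at least one test.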

compound,A,B
[H][C@@]12CN(Cc3cccnc3)C[C@]1([H])OCC(=O)N2,-,-30.93%
NS(=O)(=O)N1CCc2ccc(NC(=O)Cc3ccc(F)cc3)cc21,7.389%,1.607%
Cc1ccoc1C(=O)N1C[C@H](OCC2CC2)[C@H]2OCCC[C@H]21,8.125%,-
CC(C)NC(=O)N1CCN(C(=O)c2ccco2)CC2(CC(=O)N(C)C2)C1 (centres undefined),12.97%,-10.08%
O=C1COC2(CCN(Cc3cccnc3)CC2)CN1,11.82%,-
COc1cccc(CCC2CCCCN2)c1 (centres undefined),5.774%,-7.204%
C=C(C)COc1ccccc1NC(=O)NC1CCOCC1,6.516%,-4.086%
CCCS(=O)(=O)N1C[C@H]2C[C@H](C(=O)N3CCN(C)CC3)[C@@H](C1)O2,10.64%,-
[H][C@@]12CCCO[C@]1([H])[C@H](N(C)Cc1cccnc1)CN2C(=O)c1ccco1,-,-0.6745%
COCC(=O)N1CCCn2c(CN3CCOCC3)nnc2C1,15.95%,-
CCn1c(CN(C)C)nnc1C1CCN(Cc2cccc(F)c2F)CC1,15.38%,-2.606%
O=C(NCC1CCC2(CC1)OCCO2)c1cccc(-n2cccn2)c1,5.914%,-10.79%
CC(C)C[C@H](NC(=O)Cn1ccc2c(Cl)cccc21)C(=O)O,11.82%,-17.87%
CCn1cc(CN2CCCN(C(=O)CCCn3cncn3)CC2)cn1,14.98%,18.21%
CCn1ccc(-c2cc(C(=O)O)n3ncc(Br)c3n2)n1,12.63%,13.16%
CN(C)C[C@@H]1CN(C(=O)c2cc(S(N)(=O)=O)ccc2F)C[C@@H]1CO,11.45%,3.588%
[H][C@]12CCN[C@@]1([H])CN(C(=O)CC(F)(F)F)C2,-,21.15%
[H][C@@]12C[C@H](C(=O)N3CCCC3)[C@@]([H])(CN(c3ncc(F)cn3)C1)O2,-,17.96%
c1cncc(C[C@@H]2CC[C@H](CN3CCCOCC3)O2)c1,10.41%,13.12%
COCCn1cc(C(=O)N2CCCC2c2cccs2)c2ccccc21 (centres undefined),0%,2.046%
N#Cc1ccccc1NC(=O)C1CN(C(=O)c2ccc3c(c2)OCO3)C1,21.1%,16.43%
CC(C)(C)c1n[nH]cc1CNC1CCC(C(F)(F)F)CC1.Cl (centres undefined),-,-43.27%
OC1CCN(Cc2c(C3CCCNC3)[nH]c3ncccc23)CC1 (centres undefined),13.36%,-
O=C(O)c1c(-c2cccnc2)ncc2c1CCN(CC1CCOC1)C2 (centres undefined),3.922%,-
O=C(O)c1ccc(=O)n(CC(c2ccc(Cl)cc2)N2CCOCC2)c1 (centres undefined),13.98%,5.888%
CN(C)Cc1cn(-c2ccccc2C(=O)NCC2CCCCN2C)cn1 (centres undefined),11.63%,-12.2%
Cc1nn(C)c(C)c1C(C(=O)O)N1CCc2ccccc2C1 (centres undefined),13.19%,2.772%
CCOCCC(=O)NC(Cc1ccc(C)cc1)c1ccccn1 (centres undefined),9.22%,-8.356%
Cc1csc(Nc2cc(C3CN(C(C)C)C3)nc(C)n2)n1,14.29%,5.173%
CCc1ccc(C2CCCN2C(=O)NCC(=O)NCC(C)C)o1 (centres undefined),0.6211%,-12.75%
COc1cccc(-c2ccnc(C3CCNCC3)c2)c1,10.29%,-18.54%
OC(CNCCn1cccn1)COc1ccc(F)cc1 (centres undefined),10.87%,12.42%
O=C(NC1CCC1)[C@H]1C[C@@H]2CN(C(=O)Nc3ccc(F)cc3)C[C@H]1O2,9.51%,-
CN(C)CCN1C(=O)CCCC12CCCN(C(=O)c1ccncc1)C2 (centres undefined),12.64%,-
c1nc(N2CCOC(Cn3cncn3)C2)c2sccc2n1 (centres undefined),7.357%,-23.67%
COCCNC(=O)N1CC(Cc2ccccc2F)C1,2.801%,-1.885%
CCN(C)S(=O)(=O)NCC1CCCN(Cc2ccccc2F)C1 (centres undefined),14.03%,6.482%
[H][C@@]12CCN(C(=O)c3ccccc3)C[C@@]1([H])O[C@H](c1nnc(C3CC3)o1)C2,-,48.55%
CCc1onc(C)c1C(=O)N1CCC(c2cc3ncccc3cn2)CC1,9.003%,13.11%
CCN1CCN(c2ccc(CNC(=O)Cc3c(C)noc3C)cn2)CC1,14.74%,-4.748%
O=C(O)C(F)(F)F.O=C(c1ccncc1F)N1Cc2nc(COCC3CC3)oc2C1,-,19.38%
NS(=O)(=O)c1ccc(C(=O)N2CCCC2c2ccccc2)o1 (centres undefined),13.69%,15.75%
CCS(=O)(=O)N1C[C@H]2CN(Cc3cccc(C)c3)C(=O)[C@H]2C1,7.726%,-
N#CC1(C(=O)N2CCCN(Cc3cscn3)CC2)CCCCC1,12.29%,-6.606%
Cc1cccc(-c2ccc(C(=O)NCCN3CCOCC3)c(=O)[nH]2)c1,11.69%,3.397%
NC(=O)c1cccnc1N1CCN(c2ncnc3c2CCNC3)CC1,11.73%,-12.05%
Cc1cnc(NC(=O)c2ccc(C3CCCN3CC(C)C)s2)s1 (centres undefined),16.31%,16%
c1cncc(OC[C@]23COC[C@H]2CN(C2CCOCC2)C3)c1,12.64%,-
CO[C@H]1CCN(S(=O)(=O)c2cccs2)[C@H]1Cc1cccnc1,17.46%,-
Cc1cnc(C(=O)NC(COCC(C)C)c2ccco2)cn1 (centres undefined),14.42%,11.82%
Cc1nn(C)c(N(C)C)c1CNCc1cccc(OCCN(C)C)c1,3.061%,7.25%
[H][C@@]12CCCN1C[C@@H](CCSC)N(Cc1coc3ccc(Cl)cc3c1=O)C2,-,-7.837%
O=C(OCc1cc(=O)n2cc(Br)ccc2n1)c1ccc2c(c1)OCO2,17.2%,-7.22%
CC(C)(C)CC(=O)Nc1cnn(-c2ccccc2S(C)(=O)=O)c1,17.37%,19.99%
Cc1cc(C2CCCN(Cc3nnc(Cc4ccccc4)o3)C2)n[nH]1 (centres undefined),11.92%,-26.59%
Cc1cc(NC(N)=O)ccc1C(=O)N(C)C,12.11%,-3.037%
CNc1cc(C)nc(C2COCCN2CCc2ccc(F)cc2)n1 (centres undefined),18.32%,-5.505%
Cc1csc(CNC(=O)Nc2cc(C(F)(F)F)c[nH]c2=O)n1,12.39%,8.636%
COCCN(CC1CCCN(C2Cc3ccccc3C2)C1)C(=O)COC (centres undefined),11.28%,-33.69%
CCCN1CCN(Cc2nc3ccccc3[nH]2)[C@H]2CS(=O)(=O)C[C@H]21,9.966%,-
O=C(NCCNC(=O)c1scnc1Cl)c1ccccc1Cl,13.58%,-26.18%
c1cc(CN2CCO[C@H]3[C@H](OCCN4CCCC4)CC[C@@H]32)ccn1,10.68%,-
CN(CCCC1CCCO1)S(=O)(=O)NCc1ccccc1 (centres undefined),3.069%,5.022%
Cc1cnc(N2CCC3(CCN(CC4CCCC4)C3=O)CC2)nc1.O=C(O)C(F)(F)F,-,-2.471%
O=C(O)C(F)(F)F.[H][C@]12CCC[C@@]1(COCc1ccccn1)CN(S(=O)(=O)C1CC1)C2,-,-40.67%
CCN(Cc1cccc(C(=O)Nc2cn(C)nn2)c1)[C@H]1COC[C@@H]1O,10.99%,-8.58%
O=C(c1ccoc1)N1CCO[C@]2(CCC[C@H]2COCc2cccnc2)C1,20.74%,-
Cc1cc(NC(=O)CN2CCCC2c2noc(C)n2)n(C)n1 (centres undefined),9.538%,-4.18%
COc1ccccc1CC(=O)N1CCCC(c2cc(C)[nH]n2)C1 (centres undefined),20.55%,-5.063%
Cc1nc(CN2C(=O)COC3(CCN(Cc4nccs4)CC3)C2C)cs1 (centres undefined),13.5%,-
CCCc1cc(C(=O)N[C@@H]2CCC[C@@H](N3CCCC3)[C@@H]2O)no1,18.62%,-2.899%
c1cnnc(N2CCCC(NCc3cccc4c3OCO4)C2)c1 (centres undefined),12.03%,-16.23%
CCOC1COC2(CCN(S(=O)(=O)c3cccc(F)c3)CC2)C1 (centres undefined),9.013%,-2.001%

The last 7 entries again:

{"compound": "O=C(c1ccoc1)N1CCO[C@]2(CCC[C@H]2COCc2cccnc2)C1", "A": 20.74}
{"compound": "Cc1cc(NC(=O)CN2CCCC2c2noc(C)n2)n(C)n1", "stereo": "centres undefined", "A": 9.538, "B": -4.18}
{"compound": "COc1ccccc1CC(=O)N1CCCC(c2cc(C)[nH]n2)C1", "stereo": "centres undefined", "A": 20.55, "B": -5.063}
{"compound": "Cc1nc(CN2C(=O)COC3(CCN(Cc4nccs4)CC3)C2C)cs1", "stereo": "centres undefined", "A": 13.5}
{"compound": "CCCc1cc(C(=O)N[C@@H]2CCC[C@@H](N3CCCC3)[C@@H]2O)no1", "A": 18.62, "B": -2.899}
{"compound": "c1cnnc(N2CCCC(NCc3cccc4c3OCO4)C2)c1", "stereo": "centres undefined", "A": 12.03, "B": -16.23}
{"compound": "CCOC1COC2(CCN(S(=O)(=O)c3cccc(F)c3)CC2)C1", "stereo": "centres undefined", "A": 9.013, "B": -2.001}